Test results published in PubChem BioAssay AID1487 (National Center for Advancing Translational Sciences (NCATS), 2009).
Values joined by “and” are separate entries in the source; they are usually repeats but may differ in a detail not shown here. Equal entries are not always repeated. This is one part of the list. Shown are side measurements of this screen, not its main read-out; they come without a call. Compounds called inactive in the main read-out are mostly missing here. Words in brackets tell the shape of the fitted curve; partial curves, single points and poor fits give uncertain potencies.

Assay: qHTS Assay for Modulators of Lamin A Splicing
Details: HeLa LMNA splicing GFP/RFP minigene ratio, 48 h
Method in brief: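 S3 HeLa stable clones carrying a lamin A-EGFP splicing minigene plus DsRed2 were seeded at 600 cells/well in Opti-MEM with 2% FBS, pin-dosed and incubated 48 h at 37°C. Acumen cytometry (488 nm) gave the GFP/RFP total-intensity ratio.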

[1] = measured here: GFP splicing reporter channel
[2] = measured here: RFP viability control channel

CC(=O)c1ccccc1NC(=O)C1C2CCC(O2)C1C(=O)O (configuration not stated)
AC50 [1]: 35.5 µM [rising, single point] | AC50 [2]: 35.5 µM [rising, single point]

CCc1nc(SC)ncc1C(=O)Nc1ccc(Cl)cc1C(=O)c1ccccc1
AC50 [2]: 17.8 µM [rising, single point]

CC(C)CCN1CCN(Cc2c(F)cccc2Cl)CC1CCO (configuration not stated)
AC50 [2]: 0.0355 µM [falling, full curve]

N#CCCn1cc(C(=O)Nc2ccc(F)cc2)c(-c2ccc([N+](=O)[O-])cc2)n1
AC50 [1]: 35.5 µM [falling, single point]

CCOc1ccccc1NC(=O)NCc1ccc2c(c1)CCN2C(=O)c1ccccc1
AC50 [2]: 8.91 µM [rising, partial curve]

CN(N=O)c1cc(O)ccc1O
AC50 [2]: 0.00447 µM [falling, full curve, poor fit]

O=c1oc2ccccc2n1CSC1=NCCS1
AC50 [2]: 8.91 µM [rising, partial curve, poor fit]

C[C@H]1CCC[C@H](O)CCCCCc2cc(O)cc(O)c2C(=O)O1
AC50 [1]: 35.5 µM [falling, single point] | AC50 [2]: 79.4 nM [falling, full curve, poor fit] and 3.55 µM [rising, full curve]

NC(Cc1cc(O)c(O)cc1O)C(=O)O (configuration not stated)
AC50 [1]: 1.58 µM [rising, partial curve, poor fit] | AC50 [2]: 25.1 µM [rising, single point]

c1ccc(-c2nnc(SCc3nc4ccccc4[nH]3)o2)cc1
AC50 [1]: 25.1 µM [rising, partial curve] | AC50 [2]: 25.1 µM [rising, partial curve]

CC1(C)OC(c2ccccc2)=C/C(=C/C=C2C(=O)NC(=S)NC2=O)O1
AC50 [2]: 10 µM [rising, partial curve]

Cn1ncnc2c(=O)n(C)c(=O)nc1-2
AC50 [1]: 0.708 µM [falling, full curve] | AC50 [2]: 5.01 µM [falling, full curve]

CN(C)C1(c2nnnn2CCOC(=O)Nc2ccc(Cl)cc2)CCCCC1
AC50 [1]: 25.1 µM [rising, single point] | AC50 [2]: 20 µM [rising, single point]

O=C(NCCc1ccccc1)c1ccc(CSc2nc3cccnc3n2Cc2ccc(F)cc2)cc1
AC50 [1]: 5.01 µM [falling, partial curve] | AC50 [2]: 5.01 µM [falling, partial curve]

CC(C)N1CC=C(c2c[nH]c3ccccc23)CC1
AC50 [1]: 3.16 µM [rising, full curve] | AC50 [2]: 5.62 µM [rising, full curve]

CCCN(CCC)C1CCc2ccc(O)cc2C1 (configuration not stated)
AC50 [2]: 0.178 µM [falling, full curve, poor fit]

CCN(CC)c1ccc(CNCCc2ccccc2F)cc1
AC50 [1]: 0.0355 µM [falling, full curve, poor fit]

CCOP(=O)(OCC)c1nc(-c2ccc(F)cc2)oc1NCc1ccccc1
AC50 [2]: 1.12 µM [falling, full curve, poor fit]

C[C@@H](Cc1ccccc1)NCCC(c1ccccc1)c1ccccc1
AC50 [1]: 3.55 µM [falling, partial curve, poor fit]

CCn1cc(C(=O)O)c(=O)c2ccc(C)nc21
AC50 [1]: 0.158 µM [falling, full curve, poor fit] | AC50 [2]: 6.31 µM [falling, single point] and 126 nM [falling, full curve, poor fit]

C/C(=C\c1ccc(N(C)C)cc1)[N+](=O)[O-]
AC50 [1]: 7.94 µM [falling, partial curve] | AC50 [2]: 10 µM [falling, partial curve]

OCC1OC(n2cnc3c(Cl)ncnc32)C(O)C1O (configuration not stated)
AC50 [1]: 7.08 µM [rising, full curve, poor fit] | AC50 [2]: 7.08 µM [rising, full curve, poor fit]

CC(C)CCON=O
AC50 [1]: 0.0126 µM [falling, full curve, poor fit] | AC50 [2]: 2.51 µM [rising, partial curve]

COc1ccc(NC(=O)CCc2nc(C3=CCN(Cc4cccc(Cl)c4)CC3)no2)c(OC)c1
AC50 [2]: 6.31 µM [falling, partial curve, poor fit]

CCCC(=O)OC(C(Cl)(Cl)Cl)P(=O)(OC)OC (configuration not stated)
AC50 [1]: 31.6 µM [rising, single point] | AC50 [2]: 35.5 µM [rising, partial curve, poor fit]

Cc1ccccc1N1C(=O)NC(=O)/C(=C\c2ccc3c(c2)CCCN3Cc2ccccc2)C1=O
AC50 [2]: 11.2 µM [rising, partial curve, poor fit]

Cc1cc(OCCCC(=O)NCc2cccs2)ccc1Cl
AC50 [2]: 12.6 µM [rising, single point]

Cc1cccc(C)c1OCc1n[nH]c(=S)n1N
AC50 [2]: 6.31 µM [falling, partial curve, poor fit]

COc1ccc(C2NCCc3[nH]cnc32)cc1 (configuration not stated)
AC50 [1]: 22.4 µM [rising, partial curve, poor fit]

O=c1oc(Cl)c(Cl)c2ccccc12
AC50 [1]: 15.8 µM [falling, partial curve] | AC50 [2]: 12.6 µM [falling, partial curve]

O=P(Oc1ccccc1)(Oc1ccccc1)C(Nc1ccccc1)c1ccccc1 (configuration not stated)
AC50 [2]: 15.8 µM [rising, single point]

Oc1cc(Cl)ccc1Oc1ccc(Cl)cc1Cl
AC50 [1]: 1.26 µM [falling, partial curve, poor fit]

Brc1c(Br)c(Br)c2n[nH]nc2c1Br
AC50 [1]: 22.4 µM [falling, partial curve, poor fit] | AC50 [2]: 12.6 µM [falling, partial curve]

O=C(Nc1nc2c(s1)CCCC2)C1CCCN1C(=O)c1cccs1 (configuration not stated)
AC50 [2]: 22.4 µM [falling, single point]

CCCN1CCCC2Cc3[nH]ncc3CC21 (configuration not stated)
AC50 [2]: 0.00178 µM [falling, full curve, poor fit]

Cc1ncc([N+](=O)[O-])n1CCOc1nonc1N
AC50 [1]: 0.562 µM [falling, partial curve, poor fit] | AC50 [2]: 0.562 µM [falling, full curve, poor fit]
